Test results from paper doi:10.1101/2021.03.26.437179 (bioRxiv, 2021).
Results are given in words; binding and its absence hold for the method and conditions named. Binding seen in cells or lysates may run through a third protein. A yes stands for co-enrichment or nearness to the bait. Other partners may have been found.

Target: VDAL-MYC (Verticillium dahliae)
Assay: affinity purification with mass spectrometry

B1: PUB26 (endogenous) (enzyme, UniProt Q9FXA4 1-421)
chain: MPGNLEPLDLGIQIPYHFRCPISLDLMSDPVTISTGQTYDRTSIDSWIAMGNTTCPVTRVALSDFTLIPNHTLRRLIQEWCVANRSNGVERIPTPKQPADPISVRSLLSQASAITGTHVSVRSRAAAIRRLRGLARDSEKNRVLIAGHNAREILVRILFADIETTSLSSELVSESLALLVLLHMTETECEAVASDPSRVGFMTRLLFDSSIEIRVNAAALIEMVLTGAKSMDLKLIISGSDSIFEGVLDLLKNPISSRRALKIGIKAIFALCLVKQTRHLAISAGAPGILIDRLAADFDRCDTERGLATVELLCRLPEGCAAFGEHALTVPLMVKTILRVSDRATEYAAGALLALCTAEERCRDEAAAAGLVTQLLLLVQSDCTERAKRKAQMLLKLLRDSWPDDSTVHSDDFNRSEVAPF
With B1 the binding was “binds”.
